Source: PubChem BioAssay AID1259254 (NCATS, 2017)

Aim: 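Finding genes that stop cells copying their DNA twice in one cycle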 (primary screen)
System: human HCT116 colorectal cancer cells
Reagent: single siRNA against human genes
Time to read-out: 3 days
Measured: 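Nuclei stained with Hoechst and imaged; cell-cycle phase assigned by DNA content; G2 share scaled per plate, non-targeting siRNA 0%, GMNN siRNA 100%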
Reading the numbers: G2 robust z-score and G2 cells, % of GMNN control: higher = more G2 cells, more excess DNA replication; raw share of cells in G2: higher = larger share of cells with G2 DNA content
Rule for the call: 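Active siRNAs have a G2 robust z of 5 or more median absolute deviations over the median, which in these data means about 38% or higher of GMNN control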
This is a random part of about 59,000 reagents tested. About 1,550 of all reagents (2.6%) count as active. 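G2 share is only a proxy for re-replication; each gene was hit by three separate siRNAs, and active genes were retested.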 The raw values are shown without normalisation. A number with no mark means an inactive call. The numbers tell different reagents against one gene apart. Reagent sequences are not shown. Not given: the amount of reagent.

gene | reagent no. | G2 robust z-score | G2 cells, % of GMNN control | raw share of cells in G2 (%)
SUCNR1 | 1 | 1.52 | 13.7 | 10.7
SUCNR1 | 2 | -0.777 | -2.5 | 3.64
SUCNR1 | 3 | 0.502 | 6.5 | 5.26
POLH | 1 | 1.22 | 11.6 | 8.95
POLH | 2 | -0.37 | 0.361 | 4.82
POLH | 3 | -0.875 | -3.19 | 3.08
PLK4 | 1 | 3.09 | 24.7 | 13.3
PLK4 | 2 | 3.08 | 24.6 | 14.1
PLK4 | 3 | 3.4 | 26.9 | 12.3
PAPOLB | 1 | -0.659 | -1.67 | 3.64
PAPOLB | 2 | 1.51 | 13.6 | 12.4
PAPOLB | 3 | -1.27 | -6 | 2.29
RTN1 | 1 | 0.694 | 7.85 | 8.31
RTN1 | 2 | 0.029 | 3.17 | 5.47
RTN1 | 3 | -0.264 | 1.11 | 3.76
ARHGAP44 | 1 | 0.0341 | 3.21 | 4.29
ARHGAP44 | 2 | -0.753 | -2.33 | 4.32
ARHGAP44 | 3 | -1.2 | -5.44 | 2.54
PYROXD2 | 1 | 0.623 | 7.35 | 6.55
PYROXD2 | 2 | 0.801 | 8.6 | 6.01
PYROXD2 | 3 | 0.882 | 9.17 | 5.19
PGM3 | 1 | -0.444 | -0.156 | 4.74
PGM3 | 2 | 0.956 | 9.69 | 7.22
PGM3 | 3 | 0.314 | 5.17 | 5.05
RAD23B | 1 | 0.961 | 9.73 | 8.33
RAD23B | 2 | -1.21 | -5.56 | 2.56
RAD23B | 3 | -0.5 | -0.554 | 3.96
LOC646736 | 1 | -0.868 | -3.14 | 2.59
LOC646736 | 2 | -0.11 | 2.19 | 4.04
LOC646736 | 3 | -1.11 | -4.85 | 1.5
ACTL8 | 1 | -0.112 | 2.18 | 6.34
ACTL8 | 2 | -0.751 | -2.32 | 3.36
ACTL8 | 3 | -0.29 | 0.928 | 5.13
GOLGA2 | 1 | -0.894 | -3.32 | 2.14
GOLGA2 | 2 | 0.978 | 9.85 | 9.46
GOLGA2 | 3 | -0.19 | 1.63 | 3.7
ORC2 | 1 | -0.869 | -3.15 | 3.47
ORC2 | 2 | -0.664 | -1.7 | 2.62
ORC2 | 3 | 6.32 (active) | 47.5 | 23.1
FBXO3 | 1 | 2.64 | 21.5 | 12.5
FBXO3 | 2 | 0.808 | 8.65 | 7.69
FBXO3 | 3 | -0.784 | -2.55 | 2.41
ARHGAP11A | 1 | 3.78 | 29.5 | 18.7
ARHGAP11A | 2 | 0.107 | 3.72 | 5.5
ARHGAP11A | 3 | 1.92 | 16.5 | 9.41
SOCS5 | 1 | -0.318 | 0.729 | 5.48
SOCS5 | 2 | -0.371 | 0.357 | 4.9
SOCS5 | 3 | -0.0985 | 2.27 | 3.98
ABHD11 | 1 | 1.23 | 11.6 | 8.39
ABHD11 | 2 | 1.28 | 12 | 10.4
ABHD11 | 3 | 2.91 | 23.5 | 13.5
COX4I1 | 1 | 0.376 | 5.62 | 7.04
COX4I1 | 2 | 0.0177 | 3.09 | 6.06
COX4I1 | 3 | -0.545 | -0.866 | 3.8
GNAL | 1 | 0.983 | 9.88 | 8.83
GNAL | 2 | -0.17 | 1.77 | 5.94
GNAL | 3 | -0.183 | 1.68 | 4.26
ABHD17B | 1 | -1.11 | -4.82 | 2.01
ABHD17B | 2 | -0.887 | -3.27 | 3.31
ABHD17B | 3 | 5.14 (active) | 39.1 | 15.6
SLIRP | 1 | -1.35 | -6.51 | 1.94
SLIRP | 2 | -0.602 | -1.27 | 3.08
SLIRP | 3 | -0.144 | 1.96 | 3
WDR59 | 1 | -0.133 | 2.03 | 5.29
WDR59 | 2 | -0.563 | -0.997 | 3.87
WDR59 | 3 | 0.847 | 8.93 | 4.82
IPO13 | 1 | 1.4 | 12.8 | 10.1
IPO13 | 2 | -0.741 | -2.24 | 3.84
IPO13 | 3 | -0.981 | -3.94 | 1.86

Copied from the list:
ABHD17B #2, raw share of cells in G2 (%): 3.31
For “G2 cells, % of GMNN control”, IPO13 #1 is entered as 12.8
PAPOLB #1, raw share of cells in G2 (%): 3.64
ACTL8 #3, G2 cells, % of GMNN control: 0.928
